# Assay results from the supplement of paper PMC12067093, “Discovery and optimisation of a covalent ligand for TRIM25 and its application to targeted protein ubiquitination” (Chemical Science, 2025).
# Amino acid sequences for entries named in this document (tags omitted). A change or cut given only in a name is not applied to a line headed by its entry.
# UniProt P23368: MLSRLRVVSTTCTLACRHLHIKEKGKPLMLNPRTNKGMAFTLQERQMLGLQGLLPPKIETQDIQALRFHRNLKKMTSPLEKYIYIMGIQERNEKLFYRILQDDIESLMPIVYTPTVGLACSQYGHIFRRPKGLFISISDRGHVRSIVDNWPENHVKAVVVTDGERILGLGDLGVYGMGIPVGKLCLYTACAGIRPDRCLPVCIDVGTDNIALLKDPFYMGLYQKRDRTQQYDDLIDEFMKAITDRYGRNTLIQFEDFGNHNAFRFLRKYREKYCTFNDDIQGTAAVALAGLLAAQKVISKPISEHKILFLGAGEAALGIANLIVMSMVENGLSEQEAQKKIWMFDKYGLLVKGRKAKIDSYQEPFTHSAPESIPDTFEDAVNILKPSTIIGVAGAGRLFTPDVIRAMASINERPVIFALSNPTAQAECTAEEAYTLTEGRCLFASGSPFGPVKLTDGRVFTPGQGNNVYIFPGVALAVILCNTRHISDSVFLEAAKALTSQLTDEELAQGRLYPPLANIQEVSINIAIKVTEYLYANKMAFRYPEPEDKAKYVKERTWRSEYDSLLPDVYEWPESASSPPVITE
# UniProt Q7L2J0: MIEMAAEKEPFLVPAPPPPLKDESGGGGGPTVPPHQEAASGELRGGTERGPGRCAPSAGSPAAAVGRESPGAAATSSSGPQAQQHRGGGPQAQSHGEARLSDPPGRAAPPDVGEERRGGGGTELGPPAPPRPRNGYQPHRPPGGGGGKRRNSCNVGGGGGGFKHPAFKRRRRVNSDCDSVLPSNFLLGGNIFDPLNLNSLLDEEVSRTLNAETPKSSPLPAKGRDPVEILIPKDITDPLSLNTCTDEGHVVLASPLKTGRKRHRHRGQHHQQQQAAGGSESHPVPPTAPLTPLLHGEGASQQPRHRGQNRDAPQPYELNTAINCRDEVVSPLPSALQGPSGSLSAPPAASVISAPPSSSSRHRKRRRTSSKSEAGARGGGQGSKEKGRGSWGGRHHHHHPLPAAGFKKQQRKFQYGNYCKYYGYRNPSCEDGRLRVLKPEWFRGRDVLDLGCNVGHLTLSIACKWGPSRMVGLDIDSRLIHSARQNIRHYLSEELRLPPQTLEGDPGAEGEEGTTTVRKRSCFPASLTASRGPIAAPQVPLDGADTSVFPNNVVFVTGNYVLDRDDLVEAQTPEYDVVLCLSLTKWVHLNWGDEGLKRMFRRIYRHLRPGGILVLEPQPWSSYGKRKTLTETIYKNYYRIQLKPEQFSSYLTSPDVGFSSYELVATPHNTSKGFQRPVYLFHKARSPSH
# UniProt Q10469: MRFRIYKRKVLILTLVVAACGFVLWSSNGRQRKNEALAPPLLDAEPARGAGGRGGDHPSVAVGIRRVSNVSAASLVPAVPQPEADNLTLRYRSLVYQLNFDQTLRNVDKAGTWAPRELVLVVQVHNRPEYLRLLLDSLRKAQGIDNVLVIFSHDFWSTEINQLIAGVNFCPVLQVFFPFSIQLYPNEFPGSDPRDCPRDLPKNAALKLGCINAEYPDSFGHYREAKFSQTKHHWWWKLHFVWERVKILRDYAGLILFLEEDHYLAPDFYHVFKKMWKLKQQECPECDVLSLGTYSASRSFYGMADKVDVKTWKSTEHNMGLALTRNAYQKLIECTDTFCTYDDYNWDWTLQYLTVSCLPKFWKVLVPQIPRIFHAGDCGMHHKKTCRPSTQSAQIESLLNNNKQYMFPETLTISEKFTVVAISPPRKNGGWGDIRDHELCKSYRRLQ
# UniProt Q8NE86: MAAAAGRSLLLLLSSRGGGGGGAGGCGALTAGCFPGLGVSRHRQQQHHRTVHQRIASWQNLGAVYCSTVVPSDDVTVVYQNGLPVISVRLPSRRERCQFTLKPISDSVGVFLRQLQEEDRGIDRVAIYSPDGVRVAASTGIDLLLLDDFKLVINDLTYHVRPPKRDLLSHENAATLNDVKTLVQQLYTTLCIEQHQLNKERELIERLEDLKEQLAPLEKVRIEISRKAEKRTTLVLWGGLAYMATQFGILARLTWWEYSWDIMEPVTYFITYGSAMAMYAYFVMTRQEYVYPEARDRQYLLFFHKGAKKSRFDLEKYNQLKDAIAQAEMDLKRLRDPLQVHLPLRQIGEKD
# UniProt P40926: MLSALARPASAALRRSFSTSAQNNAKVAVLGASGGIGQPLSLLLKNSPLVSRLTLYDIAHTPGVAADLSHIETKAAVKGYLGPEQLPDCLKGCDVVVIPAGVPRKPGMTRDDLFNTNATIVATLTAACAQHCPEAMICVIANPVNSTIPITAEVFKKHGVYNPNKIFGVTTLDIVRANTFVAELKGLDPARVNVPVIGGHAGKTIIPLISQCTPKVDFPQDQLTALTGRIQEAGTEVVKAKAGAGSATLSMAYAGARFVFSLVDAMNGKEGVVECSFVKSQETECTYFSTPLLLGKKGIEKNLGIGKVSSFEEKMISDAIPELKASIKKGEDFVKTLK
# UniProt P33991: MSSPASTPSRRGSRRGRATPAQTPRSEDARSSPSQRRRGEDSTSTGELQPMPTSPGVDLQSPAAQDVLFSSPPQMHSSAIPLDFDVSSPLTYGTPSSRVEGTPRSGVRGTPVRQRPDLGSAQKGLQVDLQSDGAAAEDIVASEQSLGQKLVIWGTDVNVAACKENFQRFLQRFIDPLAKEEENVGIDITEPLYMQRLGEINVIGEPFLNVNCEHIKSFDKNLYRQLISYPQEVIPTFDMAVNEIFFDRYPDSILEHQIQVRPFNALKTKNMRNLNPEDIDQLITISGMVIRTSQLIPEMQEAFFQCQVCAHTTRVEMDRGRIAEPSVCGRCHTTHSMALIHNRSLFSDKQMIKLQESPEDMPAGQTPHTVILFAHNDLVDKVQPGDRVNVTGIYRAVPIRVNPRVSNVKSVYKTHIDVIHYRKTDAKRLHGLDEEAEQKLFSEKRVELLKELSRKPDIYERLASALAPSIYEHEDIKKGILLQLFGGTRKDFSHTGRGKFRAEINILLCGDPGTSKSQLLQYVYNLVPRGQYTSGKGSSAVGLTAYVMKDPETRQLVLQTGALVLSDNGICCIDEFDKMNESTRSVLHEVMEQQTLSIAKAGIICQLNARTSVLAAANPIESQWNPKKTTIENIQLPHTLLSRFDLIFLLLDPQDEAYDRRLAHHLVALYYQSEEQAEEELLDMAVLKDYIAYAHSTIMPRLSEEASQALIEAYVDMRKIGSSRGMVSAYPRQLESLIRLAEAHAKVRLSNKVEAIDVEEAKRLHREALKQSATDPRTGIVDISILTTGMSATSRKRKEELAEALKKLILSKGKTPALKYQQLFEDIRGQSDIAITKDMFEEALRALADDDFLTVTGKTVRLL
# UniProt P49736, whole entry, looked up: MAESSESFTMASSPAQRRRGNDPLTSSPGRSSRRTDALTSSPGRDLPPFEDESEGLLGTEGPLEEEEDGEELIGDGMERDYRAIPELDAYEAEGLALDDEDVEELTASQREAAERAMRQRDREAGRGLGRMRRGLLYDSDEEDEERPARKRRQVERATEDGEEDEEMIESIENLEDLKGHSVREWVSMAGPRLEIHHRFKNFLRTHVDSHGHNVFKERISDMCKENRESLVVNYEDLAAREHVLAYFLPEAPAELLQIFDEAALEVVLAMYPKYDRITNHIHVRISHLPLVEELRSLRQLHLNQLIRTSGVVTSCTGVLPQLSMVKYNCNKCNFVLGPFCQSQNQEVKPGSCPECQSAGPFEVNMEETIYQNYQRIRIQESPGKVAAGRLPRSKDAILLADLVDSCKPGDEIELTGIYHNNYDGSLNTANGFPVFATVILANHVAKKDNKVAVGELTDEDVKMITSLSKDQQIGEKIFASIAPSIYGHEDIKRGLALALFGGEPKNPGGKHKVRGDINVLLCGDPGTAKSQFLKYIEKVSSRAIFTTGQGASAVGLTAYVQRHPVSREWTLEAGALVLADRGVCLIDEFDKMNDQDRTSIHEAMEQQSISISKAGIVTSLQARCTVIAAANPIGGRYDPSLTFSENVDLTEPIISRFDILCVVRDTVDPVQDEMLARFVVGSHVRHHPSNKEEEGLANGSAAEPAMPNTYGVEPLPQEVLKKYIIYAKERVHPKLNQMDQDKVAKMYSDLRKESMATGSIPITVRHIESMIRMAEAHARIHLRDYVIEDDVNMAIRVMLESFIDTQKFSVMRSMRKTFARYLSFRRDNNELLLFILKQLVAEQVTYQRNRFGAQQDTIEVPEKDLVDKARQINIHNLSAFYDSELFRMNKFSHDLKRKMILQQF
# UniProt Q9Y316: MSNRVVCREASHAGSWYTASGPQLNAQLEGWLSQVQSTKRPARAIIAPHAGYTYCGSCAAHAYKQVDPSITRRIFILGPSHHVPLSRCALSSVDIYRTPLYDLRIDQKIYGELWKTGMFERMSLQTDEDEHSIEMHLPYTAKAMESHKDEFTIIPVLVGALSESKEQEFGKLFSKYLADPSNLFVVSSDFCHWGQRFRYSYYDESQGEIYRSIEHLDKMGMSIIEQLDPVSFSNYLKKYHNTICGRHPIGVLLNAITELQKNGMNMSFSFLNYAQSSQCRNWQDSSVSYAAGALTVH
# UniProt Q14566: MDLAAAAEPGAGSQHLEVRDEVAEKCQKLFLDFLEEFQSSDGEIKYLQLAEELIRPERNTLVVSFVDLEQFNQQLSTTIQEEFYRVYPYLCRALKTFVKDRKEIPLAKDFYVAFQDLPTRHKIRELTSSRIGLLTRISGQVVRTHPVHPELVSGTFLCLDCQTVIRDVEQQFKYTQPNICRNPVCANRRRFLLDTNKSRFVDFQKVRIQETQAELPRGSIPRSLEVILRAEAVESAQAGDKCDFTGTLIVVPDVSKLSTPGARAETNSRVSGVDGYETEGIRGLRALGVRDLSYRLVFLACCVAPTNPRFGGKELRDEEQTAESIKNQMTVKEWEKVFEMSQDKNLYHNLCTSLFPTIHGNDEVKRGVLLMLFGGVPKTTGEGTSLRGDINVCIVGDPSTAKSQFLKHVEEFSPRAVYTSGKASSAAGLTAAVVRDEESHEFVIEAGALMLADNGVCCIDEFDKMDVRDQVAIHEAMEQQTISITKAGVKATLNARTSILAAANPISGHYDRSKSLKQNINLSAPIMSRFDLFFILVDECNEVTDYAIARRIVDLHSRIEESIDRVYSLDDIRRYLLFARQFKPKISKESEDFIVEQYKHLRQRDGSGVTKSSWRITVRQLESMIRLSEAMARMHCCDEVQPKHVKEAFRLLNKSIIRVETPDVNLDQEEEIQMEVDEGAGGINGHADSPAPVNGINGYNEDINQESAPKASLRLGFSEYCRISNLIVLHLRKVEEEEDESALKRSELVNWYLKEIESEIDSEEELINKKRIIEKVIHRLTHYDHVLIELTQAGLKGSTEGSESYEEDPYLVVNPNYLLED
# UniProt Q6UX53: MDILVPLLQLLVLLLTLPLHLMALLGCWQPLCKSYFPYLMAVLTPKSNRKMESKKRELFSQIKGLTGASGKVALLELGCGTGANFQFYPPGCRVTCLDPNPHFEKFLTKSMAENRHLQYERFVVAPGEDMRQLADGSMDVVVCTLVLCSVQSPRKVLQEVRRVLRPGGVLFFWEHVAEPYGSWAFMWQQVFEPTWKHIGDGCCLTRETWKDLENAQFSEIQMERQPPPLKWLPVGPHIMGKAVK
# UniProt O15553: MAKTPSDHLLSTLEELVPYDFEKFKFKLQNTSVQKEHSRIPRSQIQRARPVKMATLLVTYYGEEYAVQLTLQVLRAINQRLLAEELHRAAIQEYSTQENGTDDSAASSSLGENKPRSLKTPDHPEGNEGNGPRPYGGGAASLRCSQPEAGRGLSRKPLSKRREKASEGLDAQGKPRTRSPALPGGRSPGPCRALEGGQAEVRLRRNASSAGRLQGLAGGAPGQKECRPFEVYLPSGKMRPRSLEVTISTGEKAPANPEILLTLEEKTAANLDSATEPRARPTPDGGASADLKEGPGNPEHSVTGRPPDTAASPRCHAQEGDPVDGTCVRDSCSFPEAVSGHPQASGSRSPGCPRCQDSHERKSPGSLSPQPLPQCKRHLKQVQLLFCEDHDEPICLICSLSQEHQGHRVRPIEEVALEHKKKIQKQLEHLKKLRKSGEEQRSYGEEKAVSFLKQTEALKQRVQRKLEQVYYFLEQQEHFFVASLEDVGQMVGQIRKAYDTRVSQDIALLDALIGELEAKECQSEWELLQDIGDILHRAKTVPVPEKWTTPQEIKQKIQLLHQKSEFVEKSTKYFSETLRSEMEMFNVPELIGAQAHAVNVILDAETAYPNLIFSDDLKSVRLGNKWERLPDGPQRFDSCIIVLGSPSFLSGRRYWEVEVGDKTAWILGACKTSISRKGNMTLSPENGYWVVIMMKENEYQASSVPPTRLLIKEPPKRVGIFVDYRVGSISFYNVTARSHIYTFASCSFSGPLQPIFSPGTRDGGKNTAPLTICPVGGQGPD
# UniProt P16455, whole entry, looked up: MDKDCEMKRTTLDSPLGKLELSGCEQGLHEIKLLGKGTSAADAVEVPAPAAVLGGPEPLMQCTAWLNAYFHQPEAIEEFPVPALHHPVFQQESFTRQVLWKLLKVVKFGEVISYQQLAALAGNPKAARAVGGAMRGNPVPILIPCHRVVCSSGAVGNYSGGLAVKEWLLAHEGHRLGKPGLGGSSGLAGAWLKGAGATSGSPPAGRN
# This is one part of the list.
# Compound: Cc1cc(ccc1-c1ccccc1)C(=O)N1CCCN(CC1)C(=O)CCl [compound 10]
# Assay: probe-labelled cysteine peptide fold change vs DMSO (competition) (log2 fold change); higher = less target engagement (more negative = stronger competition)
# Conditions: THP-1, incubation time: 4 h
# 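Also: competitive profiling in live THP-1 cells: cysteine peptides tagged with an iodoacetamide desthiobiotin (IA-DTB) probe, intensity after compound treatment relative to DMSO-treated cells.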
Target,probe-labelled cysteine peptide fold change (10 µM),probe-labelled cysteine peptide fold change (50 µM)
MEIOC_A2RUB1_875_CQDDRDVFALASAIK (UniProt A2RUB1),-0.168,-0.53
MELTF_P08582_216_CLAEGAGDVAFVK (UniProt P08582),-0.137,0.00108
ME2_P23368_198_CLPVCIDVGTDNIALLK (UniProt P23368),0.307,0.242
MEPCE_Q7L2J0_452_DVLDLGCNVGHLTLSIACK (UniProt Q7L2J0),0.0401,0.348
MED1_Q15648_424_HQVAYNTLIGSCVK (UniProt Q15648),-0.223,0.359
MED28_Q9H204_93_QTECFFLQK (UniProt Q9H204),-0.00297,-0.246
ME2_P23368_441_CLFASGSPFGPVK (UniProt P23368),-0.169,-0.0582
MGAT2_Q10469_378_IFHAGDCGMHHK (UniProt Q10469),-0.125,-0.149
METAP1_P53582_368_SAQFEHTLLVTDTGCEILTR (UniProt P53582),0.000927,-0.101
METAP1_P53582_255_KLVQTTYECLMQAIDAVKPGVR (UniProt P53582),-0.112,-0.522
MCU_Q8NE86_191_TLVQQLYTTLCIEQHQLNK (UniProt Q8NE86),0.0411,-0.0406
MFF_Q9GZY8_209_VCPPHMLPEDGANLSSAR (UniProt Q9GZY8),-0.117,-0.123
MDH1_P40925_154_ENFSCLTR (UniProt P40925),-0.141,-0.0408
MED15_Q96RN5_660_TFVPAMTAIHGPPITAPVVCTR (UniProt Q96RN5),0.12,-0.328
MDH2_P40926_285_SQETECTYFSTPLLLGK (UniProt P40926),-0.187,0.251
MCTS1_Q9ULC4_55_CHEHIEILTVNGELLFFR (UniProt Q9ULC4),0.085,0.11
MFN2_O95140_281_CTSFLVDELGVVDR (UniProt O95140),0.0211,-0.0552
MED13_Q9UHV7_681_NQCLSAIASDAEQEPK (UniProt Q9UHV7),0.327,0.0925
MCM4_P33991_509_FRAEINILLCGDPGTSK (UniProt P33991),-0.223,0.0968
MEF2D_Q14814_41_AYELSVLCDCEIALIIFNHSNK (UniProt Q14814),0.134,0.377
MED24_O75448_336_DFTEDVNCAFEFLLK (UniProt O75448),-0.0117,-0.0218

Target,probe-labelled cysteine peptide fold change (10 µM),probe-labelled cysteine peptide fold change (50 µM)
METAP1_P53582_36+40_LGIQGSYFCSQECFK (UniProt P53582),-0.0731,-0.313
MCM5_P33992_397_CSPIGVYTSGK (UniProt P33992),0.0268,0.00671
MECP2_P51608_429_GGSLESDGCPKEPAK (UniProt P51608),-0.313,-0.87
MCM2_P49736_406_DAILLADLVDSCK (UniProt P49736),-0.0605,0.3
MDN1_Q9NU22_521_HHSWSDSSVGCEQAPEEVSEAR (UniProt Q9NU22),0.141,0.0409
MCM7_P33993_566_YIAMCR (UniProt P33993),-0.553,-0.395
MCM4_P33991_306_TSQLIPEMQEAFFQCQVCAHTTR (UniProt P33991),0.177,-0.0925
MCTS1_Q9ULC4_144_QHALCVGVMK (UniProt Q9ULC4),0.104,-0.154
MEMO1_Q9Y316_55+58_AIIAPHAGYTYCGSCAAHAYK (UniProt Q9Y316),-0.0774,-0.354
MCM3AP_O60318_439_SESTDSLGGLSPSEVTAIQCK (UniProt O60318),-0.0959,-0.165
MED1_Q15648_373_FYAALPGQQHCYFLNK (UniProt Q15648),0.221,0.249
MDN1_Q9NU22_882_LFACMNPATDVGKR (UniProt Q9NU22),-0.152,-0.12
MCM6_Q14566_302_LVFLACCVAPTNPR (UniProt Q14566),-0.216,-0.355
MCTS1_Q9ULC4_113_FVLSGANIMCPGLTSPGAK (UniProt Q9ULC4),0.0993,0.0141
MDH2_P40926_285_SQETECTYFSTPLLLGKK (UniProt P40926),-0.188,-0.586
MDN1_Q9NU22_3690_LLGSQLLACTLSHNTLFGEAPSDLMVKPDGPYDFYQHPNVPEAR (UniProt Q9NU22),0.432,0.0904
METAP2_P50579_448_NLCDLGIVDPYPPLCDIK (UniProt P50579),0.0214,0.133
MCM3AP_O60318_1945_EQLQLSEATGTCLGER (UniProt O60318),-0.101,-0.117
MCM2_P49736_661_FDILCVVR (UniProt P49736),0.242,0.398
METTL13_Q8N6R0_652_RIEGEVNEILFCQLHPEQK (UniProt Q8N6R0),0.157,0.197
METAP1_P53582_22+25_LQCPTCIK (UniProt P53582),-0.0372,-0.571

Target,probe-labelled cysteine peptide fold change (10 µM),probe-labelled cysteine peptide fold change (50 µM)
MEPCE_Q7L2J0_452_GRDVLDLGCNVGHLTLSIACK (UniProt Q7L2J0),0.0724,0.049
MELTF_P08582_397_LKPEIQCVSAK (UniProt P08582),-0.326,0.0466
METTL7B_Q6UX53_96_VTCLDPNPHFEK (UniProt Q6UX53),-0.0131,-0.269
MCM3AP_O60318_740_DITQQHLCDPLTVSLIEK (UniProt O60318),-0.125,-0.00913
METAP1_P53582_174_EVLDVAAGMIKPGVTTEEIDHAVHLACIAR (UniProt P53582),0.0239,-0.428
MCM6_Q14566_351_NLYHNLCTSLFPTIHGNDEVK (UniProt Q14566),0.091,0.276
METTL26_Q96S19_162_CRNPEWGLR (UniProt Q96S19),0.105,-0.15
METTL14_Q9HCE5_256+260_CEDICWIK (UniProt Q9HCE5),-0.0382,-0.163
METAP2_P50579_135_GQECEYPPTQDGR (UniProt P50579),-0.455,-0.196
MELTF_P08582_476_SCHAGFGSPAGWDVPVGALIQR (UniProt P08582),0.0498,-0.186
METTL13_Q8N6R0_90_ECNATR (UniProt Q8N6R0),0.0609,-0.191
MEFV_O15553_355_CQDSHER (UniProt O15553),-0.0387,-0.245
METTL7B_Q6UX53_79_VALLELGCGTGANFQFYPPGCR (UniProt Q6UX53),0.0485,0.183
MGST1_P10620_50_KVFANPEDCVAFGK (UniProt P10620),-0.143,0.0291
MDN1_Q9NU22_1400_TTICQVFAALANQK (UniProt Q9NU22),0.0276,0.305
MEPCE_Q7L2J0_522_SCFPASLTASR (UniProt Q7L2J0),-0.225,-0.418
MFSD14A_Q96MC6_465_HCGSHSHPHNTQAPGEAK (UniProt Q96MC6),-0.39,-1.11
MEFV_O15553_773_NTAPLTICPVGGQGPD (UniProt O15553),-0.216,0.0511
MCM2_P49736_624_CTVIAAANPIGGR (UniProt P49736),0.12,0.0803
MED26_O95402_598_LNILPYVCLD (UniProt O95402),-0.219,0.33
METTL2B_Q6P1Q9_233_CFAFVHDLCDEEK (UniProt Q6P1Q9),0.27,0.0339

# Some values from the list.
# probe-labelled cysteine peptide fold change (50 µM) with METAP2_P50579_135_GQECEYPPTQDGR (UniProt P50579) is entered as -0.196
# probe-labelled cysteine peptide fold change (10 µM) with METAP1_P53582_174_EVLDVAAGMIKPGVTTEEIDHAVHLACIAR (UniProt P53582) is entered as 0.0239

# Continuation:

Target,probe-labelled cysteine peptide fold change (10 µM),probe-labelled cysteine peptide fold change (50 µM)
MCM3AP_O60318_931_DCEEATDFLTCHGLTVSDGCVELNR (UniProt O60318),-0.262,-0.0698
MDN1_Q9NU22_1394_ALEFGEPVLLVGDTGCGK (UniProt Q9NU22),-0.295,0.258
MEMO1_Q9Y316_244_KYHNTICGR (UniProt Q9Y316),-0.128,0.215
MELTF_P08582_603_SEDYELLCPNGAR (UniProt P08582),-0.188,0.124
MED30_Q96HR3_34_EVNTASLCR (UniProt Q96HR3),-0.0445,0.173
MED27_Q6P2C8_34_VFDCLK (UniProt Q6P2C8),0.126,-0.134
METAP2_P50579_197_PGMTMIEICEK (UniProt P50579),-0.0258,0.0239
ME3_Q16798_145_FMPIVYTPTVGLACQHYGLTFR (UniProt Q16798),-0.00527,0.758
MGMT_P16455_24_LELSGCEQGLHEIK (UniProt P16455),-0.596,-0.52
MCU_Q8NE86_97_CQFTLKPISDSVGVFLR (UniProt Q8NE86),0.018,-0.0818
MGAT2_Q10469_210_LGCINAEYPDSFGHYR (UniProt Q10469),-0.101,0.106
MED14_O60244_635_AGEMCAFNK (UniProt O60244),-0.251,-0.315
MCM3AP_O60318_1240_ETLQELQCFCK (UniProt O60318),0.166,-0.18
METTL2A_Q96IZ6_126_SEVPECR (UniProt Q96IZ6),-0.0847,-0.226
MCM3_P25205_263_TVLIACNVK (UniProt P25205),0.0227,0.0385
MCM2_P49736_661_FDILCVVRDTVDPVQDEMLAR (UniProt P49736),-0.0604,-0.392
MEPCE_Q7L2J0_452+463_GRDVLDLGCNVGHLTLSIACK (UniProt Q7L2J0),-0.0644,0.185
MCM4_P33991_212_LGEINVIGEPFLNVNCEHIK (UniProt P33991),-0.0897,0.0192
MED23_Q9ULK4_1109_FNEFPNPAAHALHVTCVELMALAVSGK (UniProt Q9ULK4),0.00137,0.0934
MGST1_P10620_50_VFANPEDCVAFGKGENAK (UniProt P10620),-0.242,-0.298
MED27_Q6P2C8_309_TLEAFHDTCRQ (UniProt Q6P2C8),-0.126,0.0423

# Single records, as listed above. Values in the order: probe-labelled cysteine peptide fold change (10 µM)	probe-labelled cysteine peptide fold change (50 µM)
# MGST1_P10620_50_VFANPEDCVAFGKGENAK (UniProt P10620) reads -0.242	-0.298
# METAP2_P50579_197_PGMTMIEICEK (UniProt P50579) reads -0.0258	0.0239
# MCM4_P33991_212_LGEINVIGEPFLNVNCEHIK (UniProt P33991) reads -0.0897	0.0192
# MGMT_P16455_24_LELSGCEQGLHEIK (UniProt P16455) reads -0.596	-0.52
